Experimental findings from patent publication US8846868B2, “Anti-AREG/HB-EGF antibodies and treatment” (Fusion Antibodies Limited, priority 2008, dated 2014) are described below.

The assay deals with T1, recombinant AREG (human) (UniProt P15514).
T1 sequence: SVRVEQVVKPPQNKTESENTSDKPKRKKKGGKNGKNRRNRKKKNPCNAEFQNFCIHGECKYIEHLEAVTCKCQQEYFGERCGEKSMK
In words: ELISA, antibody on coated recombinant protein (HBEGF, AREGfg5, rAREG), FIG. 10. On the technique in general: In an ELISA, binding on a coated surface is turned into a signal by an enzyme label.

No constants are given. Whether binding was seen depends on the method and setting. Some binding calls cover weakened binding; strength is not graded here.

B1: 8d7 1f6 2b3 antibody (antibody, V domains shown)
VH: EVQLQQSGAELVRPGALVKLSCKASGFNIKDSYIHWVNQRPEQGLEWIGWIDPENGNTIYDPKFQGKASITADTSSNTAYLQLSSLTSEDTAVYYCVSASYRYGFSYWGQGTLVTVSA
VL: DIVMTQAAPSVPVTPGESVSISCRSNKSLLHTNGNTYLYWFLQRPGQSPQLLIYRMSNLASGVPDRFSGSGSGTAFTLRISRVEAEDVGVYYCMQHLEYPYTFGGGTKLEIKR
On to B1, for which the binding result was “binds”.

B2: 8d7 1f6 2f7 antibody (antibody, V domains shown)
VH: EVQLQQSGAELVRPGALVKLSCKASGFNIKDSYIHWVNQRPEQGLEWIGWIDPENGNTIYDPKFQGKASITADTSSNTAYLQLSSLTSEDTAVYYCVSASYRYGFSYWGQGTLVTVSA
VL: DIVMTQAAPSVPVTPGESVSISCRSNKSLLHTNGNTYLYWFLQRPGQSPQLLIYRMSNLASGVPDRFSGSGSGTAFTLRISRVEAEDVGVYYCMQHLEYPYTFGGGTKLEIKR
With B2, the binding entry is listed as “binds”.
